According to patent publication US20080200467A1, “SOLUBLE EPOXIDE HYDROLASE INHIBITORS” (Arete Therapeutics, Inc., priority 2006, published 2008):
At least one compound was matched to its structure with a doubt left.

Tested on: soluble epoxide hydrolase (sEH)
Experiment: Fluorescent Assay for Mouse and Human Soluble Epoxide Hydrolase (CMNPC substrate)
Format: biochemical
Excerpt: Fluorescent Assay for Mouse and Human Soluble Epoxide Hydrolase Recombinant mouse sEH (MsEH) and human sEH (HsEH) were produced in a baculovirus expression system as previously reported. Grant et al., J. Biol. Chem., 268:17628-17633 (1993); Beetham et al., Arch. Biochem. Biophys., 305:197-201 (1993). The expressed proteins were purified from cell lysate by affinity chromatography. Wixtrom et al., Anal. Biochem., 169:71-80 (1988). Protein concentration was quantified using the Pierce BCA assay using bovine serum albumin as the calibrating standard. The preparations were at least 97% pure as judged by SDS-PAGE and scanning densitometry. They contained no detectable esterase or glutathione transferase activity which can interfere with the assay. The assay was also evaluated with similar results in crude cell lysates or homogenate of tissues. The IC50s for each inhibitor were according to the following procedure: [drawing 218] […] Jones P. D. et. al.; Analytical Biochemistry 2005; 343: pp. 66-75) Bis/Tris HCl 25 mM pH 7.0 containing 0.1 mg/mL of BSA (buffer […] at 0.25 mM in DMSO. […] Incubate the plate for 5 minutes in the plate reader at 30° C. […] At t=0, add 30 μL of working substrate solution with multi-channel pipette labeled “Briggs 303” and start the reading ([S]final: 5 μM). Read with ex: 330 nm (20 nm) and em: 465 nm (20 nm) every 30 second for 10 minutes. […]

| Compound | % Inhibition (Concentration 500 nM) [%] | % Inhibition (Concentration 5000 nM) [%] |
| --- | --- | --- |
| Cc1ccc(S(=O)(=O)N2CCC(NC(=O)C(O)C3CCCCC3)CC2)cc1 (centres unmarked) [Compound 111, 2-Cyclohexyl-2-hydroxy-N-[1-(toluene-4-sulfonyl)-piperidin-4-yl]-acetamide] | 82 |  |
| CCOC(=O)c1ccc(Oc2ccc(CCNC(=O)C(O)CCC34CC5CC(CC(C5)C3)C4)cc2)cc1 (centres unmarked) [Compound 153, Ethyl 4-(4-(2-(4-adamantyl-2-hydroxybutanamido)ethyl)phenoxy)benzoate] |  | 92 |
